Assay results published in CN101415728A.
These are yes or no findings as the source states them, for the method shown. Some results given as binding are weak or reduced against the parent protein; the word gives no strength.

The chains behind the UniProt entries cited, without tags or fusion partners. Residues count along the entry.
UniProt Q60751: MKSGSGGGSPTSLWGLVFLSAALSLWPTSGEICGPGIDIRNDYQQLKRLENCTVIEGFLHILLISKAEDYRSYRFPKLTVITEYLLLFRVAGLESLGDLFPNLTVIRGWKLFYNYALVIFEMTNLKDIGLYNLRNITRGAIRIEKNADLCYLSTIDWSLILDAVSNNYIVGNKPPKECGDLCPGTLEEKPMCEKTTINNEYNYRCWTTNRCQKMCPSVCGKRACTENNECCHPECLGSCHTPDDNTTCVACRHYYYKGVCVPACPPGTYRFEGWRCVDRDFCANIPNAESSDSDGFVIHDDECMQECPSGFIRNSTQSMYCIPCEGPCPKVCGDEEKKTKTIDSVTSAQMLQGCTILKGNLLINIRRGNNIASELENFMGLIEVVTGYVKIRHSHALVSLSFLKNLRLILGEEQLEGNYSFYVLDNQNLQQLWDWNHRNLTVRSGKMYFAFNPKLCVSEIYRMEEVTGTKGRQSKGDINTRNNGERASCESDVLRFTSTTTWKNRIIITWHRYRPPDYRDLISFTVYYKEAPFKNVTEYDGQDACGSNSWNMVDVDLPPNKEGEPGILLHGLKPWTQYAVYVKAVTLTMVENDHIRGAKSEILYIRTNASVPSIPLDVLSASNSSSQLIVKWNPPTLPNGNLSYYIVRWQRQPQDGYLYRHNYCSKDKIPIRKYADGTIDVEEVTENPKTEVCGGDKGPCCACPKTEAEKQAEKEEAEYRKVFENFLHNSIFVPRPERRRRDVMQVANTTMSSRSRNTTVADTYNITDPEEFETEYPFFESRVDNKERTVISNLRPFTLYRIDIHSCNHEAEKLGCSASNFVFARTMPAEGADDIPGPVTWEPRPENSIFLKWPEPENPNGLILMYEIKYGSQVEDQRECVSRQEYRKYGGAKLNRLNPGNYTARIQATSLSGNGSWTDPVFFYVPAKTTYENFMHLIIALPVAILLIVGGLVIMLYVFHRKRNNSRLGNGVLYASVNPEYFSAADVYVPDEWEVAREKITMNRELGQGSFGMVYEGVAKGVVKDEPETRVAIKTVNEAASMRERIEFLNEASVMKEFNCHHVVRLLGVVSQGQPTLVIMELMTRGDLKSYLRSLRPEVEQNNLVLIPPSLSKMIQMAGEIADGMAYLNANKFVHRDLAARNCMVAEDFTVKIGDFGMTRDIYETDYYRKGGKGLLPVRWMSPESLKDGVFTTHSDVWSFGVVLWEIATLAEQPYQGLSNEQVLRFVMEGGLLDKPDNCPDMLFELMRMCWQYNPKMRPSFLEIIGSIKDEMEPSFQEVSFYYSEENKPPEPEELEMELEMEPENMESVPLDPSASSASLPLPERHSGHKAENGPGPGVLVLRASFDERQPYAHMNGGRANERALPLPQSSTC
UniProt P08069, residues 31-932: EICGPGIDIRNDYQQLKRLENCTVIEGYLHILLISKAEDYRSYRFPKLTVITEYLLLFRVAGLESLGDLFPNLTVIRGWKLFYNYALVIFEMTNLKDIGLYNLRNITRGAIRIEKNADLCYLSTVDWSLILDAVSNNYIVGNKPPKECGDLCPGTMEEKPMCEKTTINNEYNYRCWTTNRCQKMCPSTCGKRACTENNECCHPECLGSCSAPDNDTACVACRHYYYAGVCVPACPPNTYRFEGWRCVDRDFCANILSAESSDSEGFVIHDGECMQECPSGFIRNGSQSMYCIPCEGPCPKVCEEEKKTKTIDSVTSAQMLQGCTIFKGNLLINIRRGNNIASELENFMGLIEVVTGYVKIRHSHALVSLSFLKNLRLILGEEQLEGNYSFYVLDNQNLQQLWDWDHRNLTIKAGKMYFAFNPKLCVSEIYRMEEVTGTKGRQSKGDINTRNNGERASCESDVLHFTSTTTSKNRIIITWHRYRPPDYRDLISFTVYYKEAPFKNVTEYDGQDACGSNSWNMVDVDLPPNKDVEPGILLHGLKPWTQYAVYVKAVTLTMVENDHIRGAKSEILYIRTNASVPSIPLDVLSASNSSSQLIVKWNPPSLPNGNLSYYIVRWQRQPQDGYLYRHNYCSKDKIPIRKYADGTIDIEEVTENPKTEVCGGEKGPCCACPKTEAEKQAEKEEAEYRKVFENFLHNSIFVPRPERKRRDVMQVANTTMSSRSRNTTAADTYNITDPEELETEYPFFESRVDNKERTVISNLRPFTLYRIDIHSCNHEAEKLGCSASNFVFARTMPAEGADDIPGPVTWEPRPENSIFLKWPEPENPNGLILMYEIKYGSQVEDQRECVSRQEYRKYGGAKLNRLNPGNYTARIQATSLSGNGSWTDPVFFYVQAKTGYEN

Experiments:
[1] = target: 小鼠IGF-1R(1-903)-Fc (mouse; human) (UniProt Q60751); assay: SPR, antibody immobilised, receptor-Fc injected (multivalent)
[2] = target: soluble / recombinant IGF-1R, construct not stated (UniProt P08069); assay: ELISA with supernatants of 293E cells

binding [1] | binding [2] | Binder
binds | – | M14-C03 antibody (full-length, IgG4 version not stated) (antibody, V domains shown) VH: EVQLLESGGGLVQPGGSLRLSCAASGFTFSKYMMSWVRQAPGKGLEWVSYISPSGGLTWYADSVKGRFTISRDNSKNTLYLQMNSLRAEDTAVYYCARDGARGYGMDVWGQGTTVTVSS VL: DIQMTQSPATLSLSPGERATLSCRASQSVSSYLAWYQQKPGQAPRLLIYDASNRATGIPARFSGSGSGTDFTLTISSLEPEDFAVYYCQQRSNWPPEVTFGPGTKVDIK
– | binds | M14-C03.G4.P (antibody, human IgG4, V domains shown, not shown: a dimerising Fc or GST) VH: EVQLLESGGGLVQPGGSLRLSCAASGFTFSKYMMSWVRQAPGKGLEWVSYISPSGGLTWYADSVKGRFTISRDNSKNTLYLQMNSLRAEDTAVYYCARDGARGYGMDVWGQGTTVTVSS VL: DIQMTQSPATLSLSPGERATLSCRASQSVSSYLAWYQQKPGQAPRLLIYDASNRATGIPARFSGSGSGTDFTLTISSLEPEDFAVYYCQQRSNWPPEVTFGPGTKVDIK
binds | – | M13-C06 antibody (full-length, IgG4 version not stated) (antibody, V domains shown) VH: EVQLLESGGGLVQPGGSLRLSCAASGFTFSIYRMQWVRQAPGKGLEWVSGISPSGGTTWYADSVKGRFTISRDNSKNTLYLQMNSLRAEDTAVYYCARWSGGSGYAFDIWGQGTMVTVSS VL: DIQMTQSPLSLSASVGDRVTITCQASRDIRNYLNWYQQKPGKAPKLLIYDASSLQTGVPSRFGGSGSGTDFSFTIGSLQPEDIATYYCQQFDSLPHTFGQGTKLEIK
